Results as given in PubChem BioAssay AID504444 (National Center for Advancing Translational Sciences (NCATS), 2011).
The whole screen tested about 360,000 compounds, of which about 7,500 (2.1%) were called active. Inconclusive results, whose numbers are uncertain, are shown with a selection of clear calls. The call rests on the fitted dose curve; in most records, active means well fitted inhibition curve with a large enough effect; inconclusive means small, poorly fitted or top-dose-only effect, or effect the other way; inactive means flat fitted curve, though single readings scatter. A potency beside an inconclusive call is a rough fit, not a confirmed value.

Assay: Nrf2 qHTS screen for inhibitors; further: nearly all actives have a fitted effect of over 60% in size
Conditions: A549 ARE-Fluc reporter, luciferase luminescence, 18-24 h; activity change, negative = inhibition: at 46 µM (top of the series)
In short: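 Two sequential reads on A549 ARE_Fluc cells exposed to compound for 18-24 h: a CellTiter-Fluor fluorescence read for viability, then a luciferase luminescence read for Nrf2/ARE activity.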
On the % scale 0 is the no-effect control and ±100 the full control effect; potency means the concentration at half of the fitted maximal effect.

| SMILES | Potency | activity change, negative = inhibition |
| --- | --- | --- |
| N#CC1(NC(=O)COC(=O)c2cc(O)c3ccccc3c2O)CCCCC1 | inconclusive: 7.31 µM [falling, partial curve] |  |
| O=C(O)CCSc1nc2ccccc2s1 | active: 13 µM |  |
| C=CCn1c(C)cc(C(=O)CN2C(=O)c3ccccc3C2=O)c1C | inconclusive: 29.1 µM [falling, single point] |  |
| O=C(NCCSSCCNC(=O)c1ccccc1)c1ccccc1 |  | inactive: 13% |
| Cc1ccc(C(=O)O)cc1NC(=S)NC(=O)c1ccc(-c2ccccc2)cc1 | inconclusive: 20.6 µM [activator, single point] |  |
| CCN(CC)c1ccc(C(=O)OCc2cc(=O)oc3cc(O)ccc23)cc1 | inconclusive: 25.9 µM [falling, partial curve, poor fit] |  |
| COc1cc(/C=C/C(=O)OCC(=O)N2CCCC2)ccc1OCC#N |  | inactive: -3.86% |
| CN(C)S(=O)(=O)c1cccc(NC(=O)CSc2nncn2-c2ccccc2)c1 | inconclusive: 29.1 µM [falling, partial curve, poor fit] |  |
| CC(C(=O)N1CCc2ccccc21)N1CCN(c2cccc(C(F)(F)F)c2)CC1 (centres undefined) | inconclusive: 18.4 µM [falling, single point] |  |
| CCOC(=O)C1CCN(C(=O)c2ccc3c(c2)sc2nc(-c4ccc(C)cc4)cn23)CC1 | inconclusive: 20.6 µM [activator, partial curve] |  |
| CN(C)/C=N/C(=S)Nc1ccccc1Cl | inconclusive: 5.8 µM [activator, partial curve] |  |
| CCC(=O)c1cc2c(cc1NC(=O)c1ccc(C)cc1)OCCO2 | inconclusive: 2.31 µM [activator, full curve] |  |
| CCOc1ccc(C(=O)NC2CCN(C(=O)Nc3ccc(F)cc3)CC2)cc1 |  | inactive: 4.59% |
| O=[N+]([O-])c1nn(-c2ccc3c(c2)OCCO3)n(O)c1=Nc1ccc(Cl)cc1 | inconclusive: 23.1 µM [falling, single point] |  |
| COc1ccc(-c2csc(Nc3cc(C)ccn3)n2)cc1C | inconclusive: 14.6 µM [falling, partial curve, poor fit] |  |
| CC(C)(C)OC(=O)CNC(=O)c1nc[nH]c1C(=O)N1CCNCC1 |  | inactive: -0.163% |
| CCOc1ccc(C(=O)Nc2ncn[nH]2)cc1 | inconclusive: 6.51 µM [falling, single point] |  |
| COc1ccc(-c2nc3cc(C(C)C)ccc3o2)cc1NC(=O)c1ccc(C)c(Cl)c1 |  | inactive: 3.38% |
| O=C(COC(=O)Cc1c(Cl)cccc1Cl)NCC1CCCO1 (centres undefined) |  | inactive: 2.36% |
| S=c1[nH]nc(CSc2nc3ccccc3s2)n1C1CCCCC1 | inconclusive: 17.8 µM [falling, partial curve] |  |
| Cc1ccccc1OC1CCN(C(=O)C2CCC(=O)N(C3CCCC3)C2)CC1 (centres undefined) | inconclusive: 25.9 µM [falling, partial curve, poor fit] |  |
| COc1ccc(CC(=O)Nc2nc(C(C)(C)C)cs2)cc1 | active: 13 µM |  |
| Cc1ccc(S(=O)(=O)NCc2ccccc2)cc1C(=O)N(C)Cc1ccccc1F |  | inactive: -14.7% |

| SMILES | Potency | activity change, negative = inhibition |
| --- | --- | --- |
| C=CCN(CC=C)C(=S)NC(=O)c1ccc(OC)c(Br)c1 | inconclusive: 16.4 µM [falling, single point] |  |
| Cc1cccc(C)c1OCCNC(=O)c1ccc2ccccc2n1 | inconclusive: 2.06 µM [falling, partial curve, poor fit] |  |
| Cc1cnn(C(=S)NCCc2ccccc2)c1 | inconclusive: 18.4 µM [activator, partial curve] |  |
| Oc1c(C(Nc2nc3ccccc3s2)c2ccco2)ccc2cccnc12 (centres undefined) | inconclusive: 3.26 µM [falling, partial curve] |  |
| O=C(Nc1ccccc1-c1nc2ccccc2[nH]1)c1ccc(S(=O)(=O)N2CCCCC2)cc1 | inconclusive: 29.1 µM [falling, single point] |  |
| CC(C)CC(=O)N/C(N)=N/c1nc2ccccc2o1 | inconclusive: 2.31 µM [activator, partial curve, poor fit] |  |
| C/C(CC(=O)Nc1ccc(Cl)cc1C(F)(F)F)=N\NC(=O)c1ccccn1 | inconclusive: 8.2 µM [activator, partial curve, poor fit] |  |
| COc1ccc(Cn2ccc3nc(C)c(C(=O)N4CCN(c5ccccc5F)CC4)cc3c2=O)cc1 | inconclusive: 20.6 µM [falling, single point] |  |
| CC1CCCCC1NC(=O)C(=O)NCC1CCCO1 (centres undefined) | inconclusive: 6.51 µM [activator, single point] |  |
| CC(C)(C)C(=O)CSc1nnc(Nc2ccccc2)s1 | inconclusive: 11.6 µM [activator, partial curve] |  |
| CC(OC(=O)c1oc2ccccc2c1CSC1CCCCC1)C(=O)NC(N)=O (centres undefined) | inconclusive: 32.6 µM [falling, partial curve, poor fit] |  |
| O=c1c2cn[nH]c2nc(SCc2ccccc2F)n1-c1ccc(Br)cc1 | inconclusive: 16.4 µM [falling, single point] |  |
| COc1ccc2c(c1)C(SCC(=O)NCCc1ccc(Cl)cc1)CC(C)(C)O2 (centres undefined) | inconclusive: 9.2 µM [falling, partial curve, poor fit] |  |
| Cc1nn(CC(=O)NCCCN2CCCC2)c(=O)c2nn(-c3ccccc3)c(C)c12 | inconclusive: 23.1 µM [activator, partial curve, poor fit] |  |
| N#Cc1nc(-c2cccc3ccccc23)oc1N | inconclusive: 0.0651 µM [activator, full curve, poor fit] |  |
| COc1ccc(-c2cc(C(=O)N3CCN(c4ncccn4)CC3)c3ccccc3n2)cc1OC |  | inactive: -23.3% |
| CC(Sc1nnc(Cc2cccs2)n1C1CCCCC1)C(=O)N1CCc2ccccc21 (centres undefined) | inconclusive: 29.1 µM [falling, single point] |  |
| COC(=O)C1=C(C(=O)OC)[C@@H]2N(C)c3ccccc3[C@@]23C[C@@H](C(=O)OC)N(C(=O)c2cccs2)C3=N1 |  | inactive: 3.71% |
| Cc1ccncc1CNC(=O)c1ccccc1 |  | inactive: -8.25% |
| NC(=O)c1ccsc1NC(=O)COC(=O)Cc1cccc2ccccc12 | active: 4.11 µM |  |
| Cc1cc(C)cc(C(=O)OCC(=O)NCc2ccco2)c1 | inconclusive: 18.4 µM [activator, partial curve, poor fit] |  |
| CC(=O)Nc1ccc(CCNC(=O)c2ccc3ccccc3c2O)cc1 | inconclusive: 29.1 µM [activator, single point] |  |
| COc1ccc(C(C)(C)C)cc1NC(=O)c1[nH]c(C)c(C(C)=O)c1C | inconclusive: 18.4 µM [activator, single point] |  |

| SMILES | Potency | activity change, negative = inhibition |
| --- | --- | --- |
| CCN1CCN(C(=O)c2ccc(CSc3ccc(C)cc3)cc2)CC1 | inconclusive: 23.1 µM [falling, single point] |  |
| O=S(=O)(c1ccc(Cl)cc1)N1CCN=C1SCc1cccnc1 |  | inactive: -26.6% |
| COc1cc(OC)cc(-c2nnc(SCC(=O)N3CCCc4ccccc43)o2)c1 | inconclusive: 20.6 µM [falling, single point] |  |
| O=C(C[n+]1cc(-c2ccc(Cl)cc2)n2c1CCCCC2)c1ccccc1 |  | inactive: -11% |
| O=C(COc1ccccc1[N+](=O)[O-])Nc1cc(-c2nc3cc(Cl)ccc3o2)ccc1Cl |  | inactive: -2.87% |
| CSc1nc(C2CC2)cc(-c2cccs2)c1C#N | inconclusive: 29.1 µM [falling, single point] |  |
| CCCC(=O)Nc1c(-c2ccccc2OC)c(=O)c2ccccc2n1C |  | inactive: 4.16% |
| COc1ccc(/C=N/NC(=O)CCc2n[nH]c(=O)[nH]c2=O)cc1OC |  | inactive: -5.33% |
| Cc1cc(C)c(S(=O)(=O)NCc2csc(-c3ccccc3)n2)c(C)c1 |  | inactive: -21.1% |
| Nc1cccc2c1C(=O)N(C(=O)/C=C/c1ccc(F)cc1)C2=O | inconclusive: 11.6 µM [falling, partial curve] |  |
| CCOC(=O)C1CCCN(C(=O)c2cc3ccc(OC)cc3[nH]2)C1 (centres undefined) | inconclusive: 6.51 µM [activator, partial curve, poor fit] |  |
| O=C(Cc1cc(=O)oc2cc(O)ccc12)N[C@@H](Cc1c[nH]c2ccccc12)C(=O)O | inconclusive: 25.9 µM [falling, partial curve, poor fit] |  |
| Cc1ccc2oc(-c3cccc(NC(=O)C4CCCO4)c3)nc2c1 (centres undefined) | inconclusive: 2.59 µM [activator, full curve] |  |
| Oc1ccc(-c2csc(Nc3ccccn3)n2)cc1 | inconclusive: 9.2 µM [activator, partial curve] |  |
| CC(=O)Nc1scc(C)c1-c1nc2ccccc2s1 |  | inactive: 2.26% |
| COc1ccc(NC(=O)COC(=O)CN2C(=O)C3CCCCC3C2=O)cc1OC (centres undefined) |  | inactive: -7.57% |
| COc1cccc(-c2cc(C(F)(F)F)n3nc(C)c(-c4ccccc4)c3n2)c1 | inconclusive: 4.11 µM [falling, single point] |  |
| CN1/C(=C\C(=S)Nc2ccccc2)C(C)(C)c2ccccc21 | inconclusive: 29.1 µM [falling, single point] |  |
| Fc1ccc(-c2csc(Nc3ccccn3)n2)c(F)c1 | inconclusive: 0.731 µM [activator, full curve] |  |
| COc1ccc(-c2nnc(SCC(=O)c3ccc[nH]3)n2-c2ccccc2)cc1 | inconclusive: 5.17 µM [activator, partial curve, poor fit] |  |
| Cc1cccc(S(=O)(=O)c2c(N)n(/N=C/c3ccco3)c3nc4ccccc4nc23)c1 | inconclusive: 8.2 µM [falling, partial curve, poor fit] |  |
| CCCCCCc1cc2cc(S(=O)(=O)c3ccc(F)c(Cl)c3)c(=O)oc2cc1O | inconclusive: 29.1 µM [falling, single point] |  |
| CCOC(=O)C1CCCN(C(=O)CCS(=O)(=O)c2cc3c(cc2Cl)NC(=O)CO3)C1 (centres undefined) | inconclusive: 6.51 µM [activator, single point] |  |

4 entries drawn at random from the list so far:

| SMILES | Potency | activity change, negative = inhibition |
| --- | --- | --- |
| Cc1ccc2oc(-c3cccc(NC(=O)C4CCCO4)c3)nc2c1 (centres undefined) | inconclusive: 2.59 µM [activator, full curve] |  |
| CN(C)/C=N/C(=S)Nc1ccccc1Cl | inconclusive: 5.8 µM [activator, partial curve] |  |
| Cc1ccc(C(=O)O)cc1NC(=S)NC(=O)c1ccc(-c2ccccc2)cc1 | inconclusive: 20.6 µM [activator, single point] |  |
| CCC(=O)c1cc2c(cc1NC(=O)c1ccc(C)cc1)OCCO2 | inconclusive: 2.31 µM [activator, full curve] |  |
